Measured values taken from patent US20240156965A1, “DICHALCOGENIDE PRODRUGS” (Ludwig-Maximilians-Universitat Munchen, priority 2021, published 2024).
Some results were stated once for a whole list of compounds, not compound by compound.

Target: T1, TrxR1 (Homo sapiens, UniProt Q16881)
T1 construct: endogenous in cells
T1 sequence (Q16881 151-649 limits assumed): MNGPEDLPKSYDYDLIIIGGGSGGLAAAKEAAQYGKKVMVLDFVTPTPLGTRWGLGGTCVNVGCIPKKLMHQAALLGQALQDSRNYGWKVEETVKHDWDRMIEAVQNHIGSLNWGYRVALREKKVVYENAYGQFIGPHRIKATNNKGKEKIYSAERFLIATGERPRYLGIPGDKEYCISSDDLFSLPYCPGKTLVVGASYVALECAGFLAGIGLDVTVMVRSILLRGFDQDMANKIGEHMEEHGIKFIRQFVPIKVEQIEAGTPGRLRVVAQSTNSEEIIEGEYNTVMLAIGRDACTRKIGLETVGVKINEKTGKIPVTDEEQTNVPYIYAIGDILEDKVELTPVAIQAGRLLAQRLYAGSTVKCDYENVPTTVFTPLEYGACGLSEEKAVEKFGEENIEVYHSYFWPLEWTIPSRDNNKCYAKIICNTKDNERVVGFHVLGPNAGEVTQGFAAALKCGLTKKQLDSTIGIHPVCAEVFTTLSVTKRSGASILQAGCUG
Test: Cellular quantitative HTS for TrxR1 inhibitors using P6 (LOPAC1280)
Type: cell-based
Source text: The stability and constant environment of P6's signal (crystallising fluorophore, protected from interferences), its low background (ESIPT quenched probe) and low crosstalk (high Stokes shift), and its ability to directly generate a readout, were promising features. We therefore set out to develop the first cellular quantitative HTS (qHTS) assay for TrxR1 inhibitors, using P6, and performing pilot screening with the 1280-compound LOPAC1280 library. LOPAC is intended to cover drugs and drug-like scaffolds with much comparative data on target selectivity, potency, cellular and in vivo bioactivity, without focus on any particular mechanism of action. The LOPAC library was used in the only previously reported qHTS enzymatic TrxR assay (in 2011), and there is 82% overlap in composition between the 2011 and 2021 version (Prast-Nielsen, S. et al., Free Radical Biology and Medicine 50, 1114-1123 (2011)).
Cellular screening using P6, optimized for HTS with 1536-well plates (assay volume 6 μL, 500 cells/well) over 4 h run-time, reproduced the strong performance seen in 96-well format. Untreated vs no-cell controls gave a 7-fold raw signal to background ratio [S:B] without background compensation, with a high Z′ value of 0.64, suitable for HTS (FIG. 5a). P6 signal was linear over the assay time, and linearly reflected turnover rate (varied P6 concentration or cell count; FIG. 5b). […]

Compound: O=C1CSC(=S)N1 [rhodanine]
- apparent potency relative to reference inhibitor TRi-1: ≤ 3 % of that of TRi-1
